No constants are given. Whether binding was seen depends on the method and setting. Binding seen in cells or lysates may run through a third protein. Some results given as binding are weak or reduced against the parent protein; the word gives no strength. Sequences can lack the tags named with a protein.
Tests used:
[1] = target: T1, FLAG-VN173-AIMP1 (aminoacyl-tRNA synthetase-interacting multifunctional protein 1) (UniProt Q12904); experiment: split reporter; BiFC (Venus VN173 + VC155) in HEK293 cells co-transfected for 24 h; fluorescence images
T1 sequence: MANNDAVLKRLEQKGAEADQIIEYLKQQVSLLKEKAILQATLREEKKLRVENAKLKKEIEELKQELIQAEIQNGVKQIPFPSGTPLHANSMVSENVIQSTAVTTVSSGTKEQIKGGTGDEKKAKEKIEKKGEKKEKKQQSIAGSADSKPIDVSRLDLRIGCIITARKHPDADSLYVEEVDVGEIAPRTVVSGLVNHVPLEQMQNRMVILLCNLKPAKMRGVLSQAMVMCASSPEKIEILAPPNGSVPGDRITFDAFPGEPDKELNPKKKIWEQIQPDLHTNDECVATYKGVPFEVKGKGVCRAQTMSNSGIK

Chains of the proteins cited; added tags and fusions are not shown.
UniProt Q15796: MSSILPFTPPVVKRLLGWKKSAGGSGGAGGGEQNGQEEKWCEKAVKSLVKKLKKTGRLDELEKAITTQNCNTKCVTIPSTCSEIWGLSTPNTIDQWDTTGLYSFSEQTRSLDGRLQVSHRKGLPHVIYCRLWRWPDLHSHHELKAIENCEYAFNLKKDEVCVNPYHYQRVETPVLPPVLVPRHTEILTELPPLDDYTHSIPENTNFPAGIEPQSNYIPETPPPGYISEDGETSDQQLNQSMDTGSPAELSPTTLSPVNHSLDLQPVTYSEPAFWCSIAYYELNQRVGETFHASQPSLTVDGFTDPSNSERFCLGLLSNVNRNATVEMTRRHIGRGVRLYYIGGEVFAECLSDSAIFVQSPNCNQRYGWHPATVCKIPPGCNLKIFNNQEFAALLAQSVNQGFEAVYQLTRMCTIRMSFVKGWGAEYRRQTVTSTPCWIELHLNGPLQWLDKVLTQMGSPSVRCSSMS
UniProt P84022: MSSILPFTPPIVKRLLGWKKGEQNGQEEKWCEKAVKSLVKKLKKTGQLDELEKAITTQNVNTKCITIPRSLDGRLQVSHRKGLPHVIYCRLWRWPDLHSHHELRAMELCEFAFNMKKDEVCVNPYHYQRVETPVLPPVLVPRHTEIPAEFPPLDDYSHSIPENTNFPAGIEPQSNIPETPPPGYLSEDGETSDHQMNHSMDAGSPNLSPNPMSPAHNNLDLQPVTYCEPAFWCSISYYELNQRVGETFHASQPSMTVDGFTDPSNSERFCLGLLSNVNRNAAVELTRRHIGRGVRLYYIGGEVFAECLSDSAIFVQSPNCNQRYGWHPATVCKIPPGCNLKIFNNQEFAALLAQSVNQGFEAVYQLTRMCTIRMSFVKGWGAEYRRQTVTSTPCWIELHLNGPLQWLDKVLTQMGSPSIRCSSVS

[2] = target: T1, FLAG-VN173-AIMP1 (aminoacyl-tRNA synthetase-interacting multifunctional protein 1); experiment: co-IP; HEK293 cells transfected with FLAG-VN173-AIMP1 and HA-VC155-SMAD2/3; RIPA lysate (300 ug) precipitated with anti-FLAG antibody and protein G agarose at 4 C, blotted with anti-HA or anti-FLAG
[3] = target: T1, FLAG-VN173-AIMP1 (aminoacyl-tRNA synthetase-interacting multifunctional protein 1); experiment: split reporter; BiFC competition in HEK293 cells: FLAG-VN173-AIMP1 with 0.5 ug HA-VC155-SMAD2 or -SMAD3 in the presence or absence of Myc-AIMP1 (0.1, 0.5 or 1 ug); read 24 h after transfection, fluorescent signals counted

binding [1] | binding [2] | binding [3] | Substance
binds | binds | binds | HA-VC155-SMAD2 (from UniProt Q15796 1-467)
binds | binds | binds | HA-VC155-SMAD3 (from UniProt P84022 1-425)

— paper PMC5399188
